In publication PMC7293271:
These are yes or no findings as the source states them, for the method shown. In cells and extracts the contact can be indirect. Some entries that bind do so weakly or less than the wild type.

Protein sequences, listed by entry. Tags and fused reporters are not part of them.
UniProt P09382: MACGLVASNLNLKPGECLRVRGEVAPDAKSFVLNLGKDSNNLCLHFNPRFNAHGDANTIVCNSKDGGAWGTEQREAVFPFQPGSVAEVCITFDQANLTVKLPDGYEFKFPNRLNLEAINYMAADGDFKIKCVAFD

Molecular target: T1, BARMR1 (UniProt A1XBS5)
T1 sequence: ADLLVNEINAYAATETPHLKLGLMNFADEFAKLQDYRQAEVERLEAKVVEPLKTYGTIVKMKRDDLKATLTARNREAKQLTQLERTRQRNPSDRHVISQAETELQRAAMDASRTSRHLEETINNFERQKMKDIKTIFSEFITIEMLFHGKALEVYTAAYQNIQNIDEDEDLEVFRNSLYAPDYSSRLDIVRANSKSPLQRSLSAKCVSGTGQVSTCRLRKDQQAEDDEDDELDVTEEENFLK
Assay: co-IP; co-immunoprecipitation; cells, bait and antibodies not told in the text shown (Supplementary Fig. S6a)

binding: binds
Substance: Galectin-1 (from UniProt P09382 1-135)
